From paper PMC12822425
These are yes or no findings as the source states them, for the method shown. Binding calls can cover weak binding; strength is not graded here.

By UniProt entry, the sequences of proteins in these tests, tags left out. Where a name states a change or a piece, a line headed by the entry shows the natural chain unless it says otherwise.
UniProt Q9UPY5: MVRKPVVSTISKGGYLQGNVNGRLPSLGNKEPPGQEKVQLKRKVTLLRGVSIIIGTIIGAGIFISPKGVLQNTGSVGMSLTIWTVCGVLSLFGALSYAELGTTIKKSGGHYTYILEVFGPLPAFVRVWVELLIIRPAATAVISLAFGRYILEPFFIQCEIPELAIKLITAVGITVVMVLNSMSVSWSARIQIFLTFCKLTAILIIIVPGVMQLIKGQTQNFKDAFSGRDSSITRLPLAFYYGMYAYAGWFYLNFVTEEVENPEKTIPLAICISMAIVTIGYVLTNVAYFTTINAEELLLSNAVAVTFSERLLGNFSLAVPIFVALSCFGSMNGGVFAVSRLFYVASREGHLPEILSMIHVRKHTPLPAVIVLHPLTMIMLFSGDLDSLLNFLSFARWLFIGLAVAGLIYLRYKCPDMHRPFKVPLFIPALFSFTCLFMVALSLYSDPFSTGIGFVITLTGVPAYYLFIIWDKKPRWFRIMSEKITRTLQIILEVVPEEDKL

Target: recombinant SLC7A11 protein (human) (UniProt Q9UPY5)
Assay: SPR; competition: SLC7A11 coupled on the chip; binding of TRIM3 to SLC7A11 at varying concentrations of CypA; both purified

binding: binds
B1: TRIM3 protein (SPR) (enzyme, UniProt O75382 1-744)
chain: MAKREDSPGPEVQPMDKQFLVCSICLDRYQCPKVLPCLHTFCERCLQNYIPAQSLTLSCPVCRQTSILPEQGVSALQNNFFISSLMEAMQQAPDGAHDPEDPHPLSVVAGRPLSCPNHEGKTMEFYCEACETAMCGECRAGEHREHGTVLLRDVVEQHKAALQRQLEAVRGRLPQLSAAIALVGGISQQLQERKAEALAQISAAFEDLEQALQQRKQALVSDLETICGAKQKVLQSQLDTLRQGQEHIGSSCSFAEQALRLGSAPEVLLVRKHMRERLAALAAQAFPERPHENAQLELVLEVDGLRRSVLNLGALLTTSATAHETVATGEGLRQALVGQPASLTVTTKDKDGRLVRTGSAELRAEITGPDGTRLPVPVVDHKNGTYELVYTARTEGELLLSVLLYGQPVRGSPFRVRALRPGDLPPSPDDVKRRVKSPGGPGSHVRQKAVRRPSSMYSTGGKRKDNPIEDELVFRVGSRGREKGEFTNLQGVSAASSGRIVVADSNNQCIQVFSNEGQFKFRFGVRGRSPGQLQRPTGVAVDTNGDIIVADYDNRWVSIFSPEGKFKTKIGAGRLMGPKGVAVDRNGHIIVVDNKSCCVFTFQPNGKLVGRFGGRGATDRHFAGPHFVAVNNKNEIVVTDFHNHSVKVYSADGEFLFKFGSHGEGNGQFNAPTGVAVDSNGNIIVADWGNSRIQVFDSSGSFLSYINTSAEPLYGPQGLALTSDGHVVVADAGNHCFKAYRYLQ
